# Literature values as cited in patent publication US20260273047A1, “COMPOSITIONS AND METHODS FOR AMELIORATING ADVERSE EFFECTS OF THERAPIES” (MDX Management LLC, priority 2023, published 2026).
# For at least one compound, name, drawing or mass did not settle the structure.
# Tested on: TLR7/8-overexpressing pancreatic cancer cell line
# Conditions: cited from earlier work
smiles,measurement,value
CCOCc1nc2c(N)nc3ccccc3c2n1CC(C)(C)O [R848],cell proliferation and chemosensitivity,increased cell proliferation and reduced chemosensitivity
